Assay results taken from PMC4695000.
These are yes or no findings as the source states them, for the method shown. In cells and extracts the contact can be indirect. Some binding calls cover weakened binding; strength is not graded here.

By UniProt entry, the sequences of proteins in these tests, tags left out.
UniProt O95863: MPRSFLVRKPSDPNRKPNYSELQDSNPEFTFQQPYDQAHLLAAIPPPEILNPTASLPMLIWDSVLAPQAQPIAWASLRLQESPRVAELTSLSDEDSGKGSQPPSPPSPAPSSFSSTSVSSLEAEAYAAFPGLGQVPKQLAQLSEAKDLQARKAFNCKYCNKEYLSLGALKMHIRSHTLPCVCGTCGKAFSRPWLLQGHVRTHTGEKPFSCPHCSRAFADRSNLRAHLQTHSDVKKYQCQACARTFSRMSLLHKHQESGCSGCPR
UniProt Q15910: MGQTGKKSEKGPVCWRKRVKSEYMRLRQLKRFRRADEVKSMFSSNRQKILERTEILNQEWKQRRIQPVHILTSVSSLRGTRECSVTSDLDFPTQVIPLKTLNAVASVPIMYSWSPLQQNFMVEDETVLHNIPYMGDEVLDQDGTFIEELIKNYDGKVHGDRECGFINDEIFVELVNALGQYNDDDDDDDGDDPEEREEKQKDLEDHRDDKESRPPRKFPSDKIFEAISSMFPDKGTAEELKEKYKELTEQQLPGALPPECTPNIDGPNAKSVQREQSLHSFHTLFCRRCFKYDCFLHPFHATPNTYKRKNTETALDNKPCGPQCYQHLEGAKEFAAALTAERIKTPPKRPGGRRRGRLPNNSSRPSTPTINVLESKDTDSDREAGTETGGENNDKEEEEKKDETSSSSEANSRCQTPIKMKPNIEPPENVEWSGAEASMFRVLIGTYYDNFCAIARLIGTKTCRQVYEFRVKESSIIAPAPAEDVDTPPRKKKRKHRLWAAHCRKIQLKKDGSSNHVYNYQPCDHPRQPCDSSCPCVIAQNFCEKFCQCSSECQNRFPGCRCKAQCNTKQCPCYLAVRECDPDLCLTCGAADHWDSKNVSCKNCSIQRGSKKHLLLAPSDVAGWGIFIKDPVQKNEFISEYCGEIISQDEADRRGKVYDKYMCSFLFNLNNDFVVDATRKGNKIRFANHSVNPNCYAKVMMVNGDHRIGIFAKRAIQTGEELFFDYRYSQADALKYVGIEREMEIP
UniProt Q92769: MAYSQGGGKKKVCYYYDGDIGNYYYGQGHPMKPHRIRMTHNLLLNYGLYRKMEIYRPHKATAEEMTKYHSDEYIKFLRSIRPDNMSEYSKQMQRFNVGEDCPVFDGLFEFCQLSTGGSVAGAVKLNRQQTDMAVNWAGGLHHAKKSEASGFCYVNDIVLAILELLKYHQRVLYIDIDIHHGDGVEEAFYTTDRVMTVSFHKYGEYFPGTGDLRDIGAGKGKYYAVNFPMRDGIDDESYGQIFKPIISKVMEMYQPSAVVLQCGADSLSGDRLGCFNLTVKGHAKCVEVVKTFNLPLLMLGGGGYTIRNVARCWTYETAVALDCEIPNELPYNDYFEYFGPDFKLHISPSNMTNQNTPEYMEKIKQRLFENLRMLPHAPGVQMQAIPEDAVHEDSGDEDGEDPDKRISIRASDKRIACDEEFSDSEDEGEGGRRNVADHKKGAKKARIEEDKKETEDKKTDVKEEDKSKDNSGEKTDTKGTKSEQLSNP
UniProt Q13547: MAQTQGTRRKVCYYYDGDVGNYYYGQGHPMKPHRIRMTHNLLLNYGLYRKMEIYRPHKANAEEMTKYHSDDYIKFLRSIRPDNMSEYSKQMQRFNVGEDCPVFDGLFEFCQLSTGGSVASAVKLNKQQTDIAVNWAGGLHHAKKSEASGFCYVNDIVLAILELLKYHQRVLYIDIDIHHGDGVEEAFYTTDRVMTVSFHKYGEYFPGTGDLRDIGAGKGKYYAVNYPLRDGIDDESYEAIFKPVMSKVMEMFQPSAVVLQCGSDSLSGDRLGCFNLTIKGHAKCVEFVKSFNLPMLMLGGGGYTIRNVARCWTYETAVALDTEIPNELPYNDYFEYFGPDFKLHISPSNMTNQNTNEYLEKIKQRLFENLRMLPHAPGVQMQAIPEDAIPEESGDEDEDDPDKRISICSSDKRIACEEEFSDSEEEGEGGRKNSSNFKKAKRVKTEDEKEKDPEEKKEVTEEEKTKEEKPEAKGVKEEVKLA

Legend:
Experiment in all cases: co-IP; SW480 cell extracts pre-cleared 2 h at 4°C with IgG and protein A+G agarose; EZH2, HDAC1, HDAC2 or Snail antibody overnight at 4°C; Western blot of the precipitates; also done after siHDAC1, siHDAC2 or TSA (HDAC inhibitor) treatment of the cells
[1] = target: Snail (human (endogenous in SW480)) (UniProt O95863)
[2] = target: enhancer of zeste homolog 2 (EZH2) (human (endogenous in SW480)) (UniProt Q15910)
[3] = target: HDAC2 (human (endogenous in SW480)) (UniProt Q92769)
[4] = target: HDAC1 (human (endogenous in SW480)) (UniProt Q13547)

binding [1] | binding [2] | binding [3] | binding [4] | Substance
binds | – | – | – | HDAC1 (from UniProt Q13547 1-482)
binds | binds | – | – | HDAC2 (from UniProt Q92769 1-488)
– | – | binds | binds | Snail (from UniProt O95863 1-264)
